Structures are written as SMILES. The list shows a part of the results. Single values are uncertain, as repeats are few or missing.

Our source for the growth inhibition values is the supplement of paper PMC3047530.

The assay relates to Geomyces destructans. Nature of the assay: growth inhibition relative to DMSO control; higher = stronger growth inhibition. To be noted: 10 µM; 15 °C; incubation time 10 days.
`Cc1cc(=O)oc2cc(O)c(O)cc12`: the growth inhibition was -17.5%. With `C[n+]1cc2c3c(ccc2c2ccc4cc5c(cc4c21)OCO5)OCO3`, the growth inhibition was -28.2%. The same measure for `COc1ccc2c(c1)OCC(Cc1ccc(O)c(OC)c1)C2=O` (stereo unspecified): -1.67%; for `Nc1ncnc2c1ncn2[C@@H]1O[C@H](CO)[C@@H](O)[C@H]1O`: -19.3%; for `Clc1ccc(CSC(Cn2ccnc2)c2ccc(Cl)cc2Cl)cc1` (stereo unspecified): 77.1%. For `CN(C)CCN(Cc1ccccc1)c1ccccn1`, the growth inhibition is 8.17%. `C=CC1=C(C)c2cc3[nH]c(cc4nc(cc5[nH]c(cc1n2)c(C)c5CCC(=O)O)C(CCC(=O)O)=C4C)c(C)c3C=C`: the growth inhibition was -2.71%. `NCCCCCCNS(=O)(=O)c1cccc2c(Cl)cccc12`: the growth inhibition is -8.99%. For `C/C1=C\CC(C)(C)/C=C/CC2(C)OC2CC1` (stereo unspecified), the growth inhibition was -11.4%. For `COc1ccc(-c2coc3c(O)c(OC)ccc3c2=O)cc1` the value was -2.38%; for `C=C1CCC(OC(C)=O)/C(C)=C/C[C@@H]2[C@@H]1CC2(C)C` (stereo partly specified), 5%. As to `CCCN(CCC)S(=O)(=O)c1ccc(C(=O)O)cc1`, the growth inhibition was -10.4%. In the case of `CCN(CC)C(=O)c1cccc(C)c1`, the growth inhibition came to 6.28%. On to `C[C@]12CC[C@@H]3c4ccc(O)cc4CC[C@H]3[C@@H]1CC[C@@H]2O`, for which the growth inhibition turned out to be 19.2%. For `NC(Cc1cc(I)c(Oc2cc(I)c(O)c(I)c2)c(I)c1)C(=O)O` (stereo unspecified) the value was -12.2%; for `CN(C)CC/C=C1/c2ccccc2Sc2ccc(Cl)cc21`, -3.63%; for `CC(=O)O[C@H]1C[C@@H](OC(C)=O)C(C)(C)[C@@H]2C[C@@H](OC(C)=O)[C@]3(C)[C@H](CC[C@@]4(C)[C@H](c5ccoc5)OC(=O)[C@H]5O[C@@]534)[C@@]12C`, -3.64%. Consider `CC(=O)[C@H]1CC[C@H]2[C@@H]3CCC4=CC(=O)CC[C@]4(C)[C@H]3CC[C@]12C`, for which the growth inhibition was -5.54%.

With `CN(C)CCOC(c1ccccc1)c1ccccc1`, the growth inhibition was -6.55%. As to `NC[C@@H]1CC[C@@H](N)[C@@H](O[C@H]2[C@H](O)[C@@H](O[C@H]3O[C@H](CO)[C@@H](O)[C@H](N)[C@H]3O)[C@H](N)C[C@@H]2N)O1`, the growth inhibition came to 75.3%. In the case of `CC(C)=CCC/C(C)=C/C=C/C(C)=C/C=C/C(C)=C/C=C/C=C(C)/C=C/C=C(C)/C=C/C=C(\C)CCC=C(C)C`, the growth inhibition was -0.0098%.

In the case of `CC(=O)O[C@@H]1CC2C(C)(C)[C@H](O)C=C[C@]2(C)C2CC[C@@]3(C)[C@H](c4ccoc4)OC(=O)C4OC43[C@@]21C` (stereo partly specified), the growth inhibition was -24.2%. Turning to `COc1ccc2ccc(=O)oc2c1CC=C(C)C`, the growth inhibition is -8.87%. For the compound `N=C(N)NS(=O)(=O)c1ccc(N)cc1`, the growth inhibition is -10.9%.

`CC(=O)Oc1ccccc1C(=O)O`: the growth inhibition is -34.9%. On to `CC(=O)O[C@@H]1c2c(ccc3ccc(=O)oc23)OC(C)(C)[C@@H]1OC(=O)CC(C)C`, for which the growth inhibition was -6.11%. The same measure for `COc1cc2c3cc1Oc1cc(ccc1O)C[C@@H]1c4c(cc(OC)c(O)c4Oc4ccc(cc4)C[C@@H]3N(C)CC2)CC[N+]1(C)C`: 12.2%; for `CC1=C(C(=O)O)N2C(=O)[C@@H](NC(=O)[C@H](N)C3=CCC=CC3)[C@H]2SC1`: 0.521%. In the case of `N[C@@H](CCC(=O)N[C@@H](CS)C(=O)NCC(=O)O)C(=O)O`, the growth inhibition was -7.25%. `N[C@@H]1CONC1=O`: the growth inhibition was -4.19%. `CC(=O)O[C@]1(C(C)=O)CC[C@H]2[C@@H]3C=C(Cl)C4=CC(=O)[C@@H]5C[C@@H]5[C@]4(C)[C@H]3CC[C@@]21C`: the growth inhibition was -19.7%.

As for `COc1ccc2cc([C@H](C)CO)ccc2c1`, the growth inhibition was -2.88%.

As for `CC(=O)O[C@H]1CC[C@@]2(C)C(=CC(=O)[C@H]3[C@@H]4CC[C@H]([C@H](C)CCCC(C)C)[C@@]4(C)CC[C@@H]32)C1`, the growth inhibition was -1.53%. For `O=C(O)/C=C/c1ccc(O)c(O)c1`, the growth inhibition was -14.1%. Regarding `NC(N)=Nc1ccc(Cl)cc1`, the growth inhibition was -10.6%. For the compound `O=C(O)Cc1nn(Cc2ccc(Br)cc2F)c(=O)c2ccccc12`, the growth inhibition is -16.7%.
